From article PMC7862700
This is a selection; strong and weak results do not stand in their true shares. At the low end of the ranking, values are background and their order means little.

Chains of the proteins cited; added tags and fusions are not shown. Lines headed by an entry give the natural chain unless they say otherwise; changes in a name come on top.
UniProt Q01892: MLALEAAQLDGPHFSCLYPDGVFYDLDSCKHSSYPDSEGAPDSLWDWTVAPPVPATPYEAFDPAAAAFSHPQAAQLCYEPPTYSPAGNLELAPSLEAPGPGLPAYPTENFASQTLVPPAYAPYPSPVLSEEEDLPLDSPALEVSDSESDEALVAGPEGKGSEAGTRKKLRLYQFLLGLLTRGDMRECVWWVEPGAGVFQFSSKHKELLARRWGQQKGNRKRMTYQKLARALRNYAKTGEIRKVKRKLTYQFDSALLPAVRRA

How the values were obtained:
Assay in all cases: DAPPL (digital affinity profiling via proximity ligation, sequencing)
Conditions in all cases: 10 mM Tris-HCl pH 7.5, 50 mM NaCl, 1 mM DTT, 4% glycerol, room temperature, 30 min; GST-TFs on glutathione beads, 16-mer random dsDNA library, 0.1% …; high values mean tight binding; double strand, one strand shown; scale: fold enrichment (6-mer frequency, TF over GST control)
FLI1 = target: T1, FLI1 (UniProt Q01543)
T1 sequence: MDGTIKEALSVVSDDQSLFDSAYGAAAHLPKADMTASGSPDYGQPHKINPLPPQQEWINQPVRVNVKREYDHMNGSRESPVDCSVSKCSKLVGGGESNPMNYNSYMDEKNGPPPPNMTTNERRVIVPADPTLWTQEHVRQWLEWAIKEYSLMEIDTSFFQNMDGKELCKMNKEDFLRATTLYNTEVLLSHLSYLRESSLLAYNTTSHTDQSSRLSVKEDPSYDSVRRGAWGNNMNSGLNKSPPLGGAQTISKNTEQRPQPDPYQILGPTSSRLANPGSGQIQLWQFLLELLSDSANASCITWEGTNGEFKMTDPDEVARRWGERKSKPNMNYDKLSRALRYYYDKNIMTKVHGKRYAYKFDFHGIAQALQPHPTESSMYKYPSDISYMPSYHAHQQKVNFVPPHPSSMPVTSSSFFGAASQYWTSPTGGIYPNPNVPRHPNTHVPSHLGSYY

EHF = target: T2, EHF (UniProt Q9NZC4)
T2 sequence: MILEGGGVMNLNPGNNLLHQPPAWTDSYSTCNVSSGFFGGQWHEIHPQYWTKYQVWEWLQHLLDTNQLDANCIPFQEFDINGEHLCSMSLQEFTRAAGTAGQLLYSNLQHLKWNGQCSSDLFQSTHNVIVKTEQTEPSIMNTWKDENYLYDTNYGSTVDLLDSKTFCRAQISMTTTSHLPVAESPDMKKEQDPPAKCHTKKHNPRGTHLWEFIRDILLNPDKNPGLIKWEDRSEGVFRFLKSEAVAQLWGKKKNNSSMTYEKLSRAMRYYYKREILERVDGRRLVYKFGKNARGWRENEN

ETV2 = target: T3, ETV2 (UniProt O00321)
T3 sequence: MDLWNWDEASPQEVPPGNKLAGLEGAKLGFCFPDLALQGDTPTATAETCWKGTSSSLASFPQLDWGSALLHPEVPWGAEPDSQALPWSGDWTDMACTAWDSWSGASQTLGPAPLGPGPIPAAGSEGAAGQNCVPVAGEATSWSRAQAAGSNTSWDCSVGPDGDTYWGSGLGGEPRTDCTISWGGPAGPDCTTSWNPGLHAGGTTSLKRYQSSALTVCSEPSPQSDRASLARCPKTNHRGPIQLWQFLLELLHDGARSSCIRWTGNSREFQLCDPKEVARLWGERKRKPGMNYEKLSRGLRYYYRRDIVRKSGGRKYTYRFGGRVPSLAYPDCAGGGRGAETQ

ETV3L = target: T4, ETV3L (UniProt Q6ZN32)
T4 sequence: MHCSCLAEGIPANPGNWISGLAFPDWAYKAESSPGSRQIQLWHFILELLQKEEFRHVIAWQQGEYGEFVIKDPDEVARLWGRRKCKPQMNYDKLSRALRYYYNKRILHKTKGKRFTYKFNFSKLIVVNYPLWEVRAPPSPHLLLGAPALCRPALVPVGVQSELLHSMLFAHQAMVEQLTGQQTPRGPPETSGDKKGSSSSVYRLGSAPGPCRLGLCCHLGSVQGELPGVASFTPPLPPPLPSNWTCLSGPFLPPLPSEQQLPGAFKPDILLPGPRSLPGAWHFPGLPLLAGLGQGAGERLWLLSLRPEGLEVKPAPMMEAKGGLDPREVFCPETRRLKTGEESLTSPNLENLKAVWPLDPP

SPIB = SPIB (UniProt Q01892)

| Sequence | binding signal (FLI1) | binding signal (EHF) | binding signal (ETV2) | binding signal (ETV3L) | binding signal (SPIB) |
| --- | --- | --- | --- | --- | --- |
| CAGCCC | 0.975 | 1.16 | 1.27 |  |  |
| GGCTCG | 1.06 | 0.966 | 0.931 |  |  |
| TCACCA | 1.18 | 1.06 | 1.32 | 1.16 |  |
| AGAAGT | 0.973 |  | 1.03 | 0.947 | 0.968 |
| ACATAA | 1.01 |  | 1.15 | 1.1 |  |
| GACTCC | 1.35 |  | 1.26 | 1.27 | 1.38 |
| GCAATG | 1.05 |  | 1.07 | 0.998 | 0.977 |
| ATCTTA | 1.15 |  | 1.12 | 1.1 |  |
| GTTTAT | 1.09 | 1.06 | 0.975 |  |  |
| GTTAAG | 1.04 | 1.01 | 1.1 |  |  |
| AGACTT | 1.09 |  | 0.868 | 0.951 |  |
| CTTGCG | 1.44 | 1.41 | 1.29 | 1.39 |  |
| CAAACC | 1.16 |  | 1.12 | 1.18 | 1.06 |
| GTACTG | 0.997 |  | 0.95 | 0.885 |  |
| CCAATT | 1.2 |  | 1.27 | 1.24 |  |
| TAGGCC | 0.913 | 0.953 | 0.993 | 0.84 | 0.919 |
| ACTGCC | 1.47 | 1.46 | 1.16 |  |  |
| CTTAAA | 1.12 |  | 1.1 | 1.3 |  |
| GCCCGC | 1.09 |  | 1.16 | 1.09 |  |
| AAAGCT | 1.06 | 0.979 | 1.01 |  |  |
| GTGCCC | 0.928 | 0.95 | 0.888 | 1 | 0.991 |
| TGCCGA | 1.07 | 1.24 | 1.08 |  |  |
| AGTGAC | 1.07 | 1.08 | 0.913 |  |  |
| ACATGC | 1.31 |  | 1.44 | 1.26 |  |
| ACATTT | 1.63 |  | 1.68 | 1.49 |  |
| ATCCAT | 1.22 |  | 1.19 | 1.11 |  |
| ATGCGC | 1.15 | 1.17 | 1.1 |  |  |
| TAAAGC | 1.03 |  | 0.902 | 0.948 |  |

Given with each value named: part of the list above
GGCTCG
  binding signal (FLI1) = 1.06; binding signal (EHF) = 0.966; binding signal (ETV2) = 0.931
ATCCAT
  binding signal (FLI1) = 1.22; binding signal (ETV2) = 1.19; binding signal (ETV3L) = 1.11
